Measurements reported in doi:10.1101/2025.05.19.654879.
No constants are given. Whether binding was seen depends on the method and setting. Binding seen in cells or lysates may run through a third protein. Some binding calls cover weakened binding; strength is not graded here.

Amino acid sequences for entries named in this document (tags omitted). A change or cut given only in a name is not applied to a line headed by its entry. Residues count along the entry.
UniProt Q96P20: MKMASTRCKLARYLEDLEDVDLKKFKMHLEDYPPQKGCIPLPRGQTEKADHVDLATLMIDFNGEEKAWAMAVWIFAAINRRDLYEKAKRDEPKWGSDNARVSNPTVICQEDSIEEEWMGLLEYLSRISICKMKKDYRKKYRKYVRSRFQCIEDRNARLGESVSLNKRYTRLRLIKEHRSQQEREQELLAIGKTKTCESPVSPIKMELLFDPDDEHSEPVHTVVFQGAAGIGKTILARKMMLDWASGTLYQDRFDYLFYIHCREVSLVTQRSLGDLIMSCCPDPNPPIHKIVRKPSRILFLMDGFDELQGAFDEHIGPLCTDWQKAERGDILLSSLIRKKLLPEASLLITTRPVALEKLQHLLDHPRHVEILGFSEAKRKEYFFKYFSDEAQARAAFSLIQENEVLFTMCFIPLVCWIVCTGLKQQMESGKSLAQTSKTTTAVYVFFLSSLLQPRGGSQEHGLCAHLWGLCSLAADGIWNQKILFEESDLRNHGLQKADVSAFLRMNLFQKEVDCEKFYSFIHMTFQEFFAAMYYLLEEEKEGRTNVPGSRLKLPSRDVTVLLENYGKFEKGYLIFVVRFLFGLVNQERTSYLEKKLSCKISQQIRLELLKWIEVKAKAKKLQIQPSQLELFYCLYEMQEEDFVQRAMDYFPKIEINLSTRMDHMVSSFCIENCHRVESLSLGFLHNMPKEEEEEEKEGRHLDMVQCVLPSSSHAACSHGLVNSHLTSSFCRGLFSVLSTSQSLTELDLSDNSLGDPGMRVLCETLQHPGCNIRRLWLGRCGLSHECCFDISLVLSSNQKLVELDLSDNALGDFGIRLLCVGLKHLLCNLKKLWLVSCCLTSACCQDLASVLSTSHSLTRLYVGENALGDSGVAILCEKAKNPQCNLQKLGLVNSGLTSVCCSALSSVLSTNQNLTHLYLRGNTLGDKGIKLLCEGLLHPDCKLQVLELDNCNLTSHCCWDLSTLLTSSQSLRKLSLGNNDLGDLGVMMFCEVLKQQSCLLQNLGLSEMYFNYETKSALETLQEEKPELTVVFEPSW
Flag-NLRP3_(132-1036): residues 132-1036 of Q96P20
UniProt Q7L804: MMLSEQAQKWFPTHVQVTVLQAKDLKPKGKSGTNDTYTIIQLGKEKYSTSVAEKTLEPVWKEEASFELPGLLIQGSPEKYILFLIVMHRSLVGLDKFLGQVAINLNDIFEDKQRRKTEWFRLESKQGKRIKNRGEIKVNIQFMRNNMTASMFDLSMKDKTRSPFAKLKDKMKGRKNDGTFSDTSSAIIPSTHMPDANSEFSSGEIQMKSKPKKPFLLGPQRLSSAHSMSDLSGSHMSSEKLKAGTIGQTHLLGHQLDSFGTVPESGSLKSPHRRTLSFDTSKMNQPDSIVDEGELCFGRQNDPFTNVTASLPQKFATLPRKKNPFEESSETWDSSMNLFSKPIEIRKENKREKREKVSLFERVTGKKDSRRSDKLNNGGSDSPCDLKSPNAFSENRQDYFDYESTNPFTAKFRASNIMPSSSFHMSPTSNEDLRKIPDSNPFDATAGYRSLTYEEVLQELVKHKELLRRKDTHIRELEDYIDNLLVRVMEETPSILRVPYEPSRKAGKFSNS
Flag-FIP2_(1-192): residues 1-192 of Q7L804
Flag-FIP2_(193-512): residues 193-512 of Q7L804
UniProt Q9ULZ3: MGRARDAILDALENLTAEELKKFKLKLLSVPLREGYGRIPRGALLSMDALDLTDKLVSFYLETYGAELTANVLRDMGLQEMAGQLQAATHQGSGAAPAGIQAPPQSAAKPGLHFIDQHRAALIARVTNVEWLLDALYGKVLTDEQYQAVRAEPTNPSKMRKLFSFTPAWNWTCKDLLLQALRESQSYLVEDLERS

Assays:
Assay in all cases: co-IP
[1] = target: Flag-NLRP3_(132-1036) (human) (UniProt Q96P20)
[2] = target: Flag-NLRP3 (full length human NLRP3) (human) (UniProt Q96P20)
[3] = target: Flag-FIP2 (full-length Rab11-FIP2) (human) (UniProt Q7L804)
[4] = target: Flag-FIP2_(193-512) (human) (UniProt Q7L804)
[5] = target: Flag-FIP2_(1-192) (human) (UniProt Q7L804)

Row | binding [1] | binding [2] | binding [3] | binding [4] | binding [5] | Substance
1 | no binding | binds |  |  |  | EGFP-FIP2 (Rab11-FIP2) (from UniProt Q7L804 1-512)
2 |  | no binding |  |  |  | EGFP-FIP2_(I481E) (from UniProt Q7L804 1-512)
3 |  |  | binds | no binding | binds | EGFP-NLRP3 (from UniProt Q96P20 1-1036)
4 |  |  | no binding |  |  | HA-ASC (from UniProt Q9ULZ3 1-195)
